One compound from US20250359758A1, “METHODS OF USING OPTICAL FIBER-BASED FLUORESCENCE SPECTROSCOPY FOR SURGICAL GUIDANCE AND/OR TISSUE DIAGNOSTICS AND APPLICATIONS OF SAME” (VANDERBILT UNIVERSITY, priority 2020, published 2025) can be followed below.

This data set deals with parathyroid glands (PGs). The data set is described as follows: Fiber-optic probe (PTeye) detection of ICG fluorescence for parathyroid perfusion during surgery. The format is in vivo, human. To be noted: for Detection Ratio in PG*-Post 2 min, Ligated PGs (diseased) / Detection Ratio in PG*-Post 2 min, Unligated PGs (healthy): parathyroidectomy. The source says: According to the invention, by using the fiber optic probe based fluorescence detection system such as the PTeye, in conjunction with contrast agents such as ICG, IRDye 800CW or methylene blue, the PTeye can now be applied for tissue perfusion studies for a real-time quantitative feedback, especially for assessment of parathyroid perfusion during head and neck surgeries. First, a surgeon establishes baseline in patient and identifies all PGs using autofluorescence detection with the PTeye (without ICG, IRDye 800CW or methylene blue,). After identification of PGs, about 0.25-3.5 cc ICG (or IRDye 800CW, or methylene blue) is injected into the patient's bloodstream. After about 15-30 seconds, the PTeye probe is placed on the target PGs and the foot pedal is pressed. Detection level and Detection ratios for each PGs are recorded and compared.
Instrument Description: PTeye (AiBiomed, Santa Barbara, CA) comprises a console encasing a 785 nm laser source and a detector, a detachable and sterilizable fiber-optic probe, a foot pedal to activate NIR fluorescence measurements, and a display panel. The PTeye probe delivers laser light at a power of 20 mW over a spot size of about 400 μm. The PTeye is designed to detect NIR fluorescence without interference from ambient OR lights, which has been a limitation for other standard NIR imaging systems at present. Tissue NIR fluorescence recorded with the PTeye is conveyed to the display panel and to the loudspeaker as auditory feedback. The display panel informs the surgeon on the “detection level” (absolute tissue NIR fluorescence intensity), the “detection ratio” (tissue NIR fluorescence normalized to the thyroid NIR fluorescence intensity), and the “detection percentage” (the PTeye confidence in identifying PGs [calibrated to the “detection ratio”]). The auditory feedback commences once the “detection ratio” reaches a threshold value set for PG identification.
The surgeon first confers the degree of confidence in having identified PG tissue as high, moderate, or low, based on visual inspection of the tissue in view. […] In each patient, a NIRAF baseline was first established on the thyroid so that subsequent tissue NIRAF measurements in the patient could be normalized to this thyroid baseline for obtaining the “detection ratio”. The auditory feedback volume was kept inaudible and the PTeye display panel was turned away to decrease bias of the surgeon's judgment. The hand-held, probe-based PTeye provides real-time guidance in identifying the parathyroid gland during surgery. When parathyroid tissue is detected, the system provides an audio signal and visual display. The system accurately identified parathyroid glands 96.1% of the time. Similar processes are also applied in conjunction with near infrared contrast agents such as ICG for parathyroid angiography.
Evaluation of PTeye in an intraoperative setting for quantifying parathyroid perfusion using ICG: For testing the preliminary feasibility of PTeye for assessing parathyroid vascularity, patients who underwent parathyroidectomy were recruited for this aspect of the study. Prior to removal of the diseased PG, the blood supply to the gland is ligated as per routine procedure, which serves as a suitable imitation of PG devascularization for this study. After localizing the diseased PG and an adjacent healthy PG, 1 cc ICG (2.5 mg/ml) was subsequently administered into the patient's blood stream through the intravenous route. NIR fluorescence measurements were obtained from the exposed PGs before and after ICG administration.

The mark [1] stands for this setting: 0.5 cc ICG (2.5 mg/ml) per injection, n = 3 PGs in 1 patient.
Setting [2] is: 1 cc ICG (2.5 mg/ml) per injection, n = 6 PGs in 3 patients.

Consider `CC1(C)C(/C=C/C=C/C=C/C=C2\N(CCCCS(=O)(=O)O)c3ccc4ccccc4c3C2(C)C)=[N+](CCCCS(=O)(=O)[O-])c2ccc3ccccc3c21` [ICG, indocyanine green], for which the “Detection Ratio in PG*-Post 2 min, Ligated PGs (diseased)” value under setting [1] is listed as 1.8 and the “Detection Ratio in PG*-Post 2 min, Ligated PGs (diseased)” value under setting [2] is 1.6-21.0. Also, the “Detection Ratio in PG*-Post 2 min, Unligated PGs (healthy)” value is listed as 5.1-19.4 under setting [1] and 66.4-168.5 under setting [2]. The “Time after ICG administration at which NIR fluorescence was still detected in perfused PG tissues” value (1 cc ICG, 28.5% of the standard ICG dose (3.5 cc)) amounted to 1 h. For the same compound, for the setting “4 parathyroidectomy patients, after gland ligation”, the “ICG fluorescence (detection ratio) of unligated PGs versus ligated PGs” value is listed as “significantly higher”. The “Lowest ICG dose whose NIR fluorescence the fiber-based detection is sensitive to” value (ICG solution 2.5 mg/ml) was 0.25 cc. The “Detection Ratio in PG*-Post 2 min” value by setting is: (ICG solution 2.5 mg/ml, 0.25 cc per injection, n = 10 healthy unligated PGs, range over PGs) 4.5-32.8; (ICG solution 2.5 mg/ml, 0.5 cc per injection, n = 1 healthy unligated PG) 19.4; (ICG solution 2.5 mg/ml, 1 cc per injection, n = 2 healthy unligated PGs, range over PGs) 90.8-168.5; (ICG solution 2.5 mg/ml, 3.5 cc per injection, n = 2 healthy unligated PGs, range over PGs) 274.8-374.4. Under “in vivo”, the “Lowest ICG dose whose NIR fluorescence the fiber-based detection (PTeye) is sensitive to” value is 0.6 mg. Further, the “PTeye wait-time for ICG uptake” value (in vivo) was 15 to 30 s.
